# Results taken from patent publication US20150259412A1.
# These are yes or no findings as the source states them, for the method shown. Some binding calls cover weakened binding; strength is not graded here. Sequences can lack the tags named with a protein.
# T1: recombinant human Siglec-10-Fc (R & D Systems) (human) (UniProt Q96LC7)
# T1 sequence: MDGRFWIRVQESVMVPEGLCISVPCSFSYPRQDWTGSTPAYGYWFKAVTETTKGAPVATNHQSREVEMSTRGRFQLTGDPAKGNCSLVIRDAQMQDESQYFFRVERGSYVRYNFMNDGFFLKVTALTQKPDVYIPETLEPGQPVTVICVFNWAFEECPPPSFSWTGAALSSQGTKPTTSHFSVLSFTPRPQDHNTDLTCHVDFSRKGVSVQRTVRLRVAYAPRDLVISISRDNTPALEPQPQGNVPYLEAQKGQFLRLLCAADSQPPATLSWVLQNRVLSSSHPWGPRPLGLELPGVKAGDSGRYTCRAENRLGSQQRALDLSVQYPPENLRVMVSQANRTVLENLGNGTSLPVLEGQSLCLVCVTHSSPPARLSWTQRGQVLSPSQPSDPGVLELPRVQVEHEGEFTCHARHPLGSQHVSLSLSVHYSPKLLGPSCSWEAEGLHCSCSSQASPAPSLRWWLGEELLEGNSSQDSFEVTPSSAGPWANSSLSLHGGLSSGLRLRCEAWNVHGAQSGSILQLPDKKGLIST
# Biological target: T1, recombinant human Siglec-10-Fc (R & D Systems) (human)
# Assay: soluble Siglec-10-Fc reverses suppression by CD52^hi CD4^+ T-cells in IFN-gamma ELISpot (data not shown; inferred)
binder,measurement,value
"GQNDTSQTSSPS (ligand, asparagine (N)-linked terminal carbohydrate)",binding,binds
